This assay has as its target mouse BR3-Fc (mouse). Nature of the assay: ELISA: mBAFF-Flag titrated on coated mBR3-Fc, then F(ab)'2 phage #3 (V3) added and detected. (ELISA stands for enzyme-linked immunosorbent assay.)

The chains behind the UniProt entries cited, without tags or fusion partners. Residues count along the entry.
UniProt Q9WU72, residues 127-309: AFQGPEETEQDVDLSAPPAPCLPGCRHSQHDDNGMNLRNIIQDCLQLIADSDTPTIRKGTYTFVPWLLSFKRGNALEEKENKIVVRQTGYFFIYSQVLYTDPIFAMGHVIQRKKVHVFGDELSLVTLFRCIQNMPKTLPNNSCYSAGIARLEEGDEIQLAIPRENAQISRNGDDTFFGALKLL

No constants are given. Whether binding was seen depends on the method and setting. Some entries that bind do so weakly or less than the wild type.

With “mBAFF-Flag protein (from UniProt Q9WU72 127-309) (ligand)”, the binding result was “binds”.

Values taken from patent US20100280227A1.
